Molecular target: T1, serotonin-1A receptor (5-HT1A) (Rattus norvegicus, UniProt P19327)
T1 sequence (P19327 1-422): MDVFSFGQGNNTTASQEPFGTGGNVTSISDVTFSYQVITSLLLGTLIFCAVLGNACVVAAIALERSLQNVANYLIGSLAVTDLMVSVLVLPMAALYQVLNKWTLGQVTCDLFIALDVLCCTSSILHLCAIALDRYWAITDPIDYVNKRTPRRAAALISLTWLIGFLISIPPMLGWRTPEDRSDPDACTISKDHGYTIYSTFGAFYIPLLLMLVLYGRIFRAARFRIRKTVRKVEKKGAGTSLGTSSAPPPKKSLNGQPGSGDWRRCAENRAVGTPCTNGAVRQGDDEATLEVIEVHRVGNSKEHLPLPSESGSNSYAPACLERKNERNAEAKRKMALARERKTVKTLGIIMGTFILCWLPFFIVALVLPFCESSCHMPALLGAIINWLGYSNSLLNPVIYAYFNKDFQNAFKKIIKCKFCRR
Experiment: biochemical
Parameters: species or system rat (Sprague-Dawley)
Settings: inhibition of 0.4 nM 3H-8OHDPAT binding, rat cortical membranes, 28 C, 30 minutes, pH 7.4
Method: The compounds of this invention were evaluated in the following tests systems.
Procedure for radioligand receptor assays--Male Sprague-Dawley rats weighing 110-150 g were decapitated and brains were immediately removed. Bovine brains were quickly removed from calf in the slaughterhouse. Cerebral cortices were dissected out at 4° C. and homogenized in 0.32M sucrose. After centrifugation at 1000×g for 10 minutes and then 17,000×g for 20 minutes, a crude synaptosomal fraction was sedimented. The pellet was suspended in 100 volumes of 50 mM tris-HCl buffered at pH 7.4, incubated at 37° C. for 10 minutes, and centrifuged at 50,000×g for 10 minutes. The process was repeated and the final pellet was suspended in ice-chilled 50 mM tris-HCl buffered at pH 7.4.
Binding of ^3 H-8-hydroxy-2- (di-n-propylamino) tetralin(3H-80HDPAT) to serotonin-1A receptor was performed according to the method described by Wong et al., J. Neural Transm. , 71, 207 (1988). […] Radioactivity was measured with a liquid scintillation spectrometer. Specific binding of 3H-80HDPAT is defined as the difference of radioactivity bound in the absence and in the presence of 10 μM spiperone.

## CC(C)NCC(O)COc1cccc2ccccc12 (stereo not shown) [propranolol, reference compound]
  IC50: 100 nM
